{
  "sequences": {"note": "Sequences of proteins named here, by UniProt entry; tags and fusion partners are left off. A change or cut given only in a name is not applied to a line headed by its entry.", "UniProt P18054": "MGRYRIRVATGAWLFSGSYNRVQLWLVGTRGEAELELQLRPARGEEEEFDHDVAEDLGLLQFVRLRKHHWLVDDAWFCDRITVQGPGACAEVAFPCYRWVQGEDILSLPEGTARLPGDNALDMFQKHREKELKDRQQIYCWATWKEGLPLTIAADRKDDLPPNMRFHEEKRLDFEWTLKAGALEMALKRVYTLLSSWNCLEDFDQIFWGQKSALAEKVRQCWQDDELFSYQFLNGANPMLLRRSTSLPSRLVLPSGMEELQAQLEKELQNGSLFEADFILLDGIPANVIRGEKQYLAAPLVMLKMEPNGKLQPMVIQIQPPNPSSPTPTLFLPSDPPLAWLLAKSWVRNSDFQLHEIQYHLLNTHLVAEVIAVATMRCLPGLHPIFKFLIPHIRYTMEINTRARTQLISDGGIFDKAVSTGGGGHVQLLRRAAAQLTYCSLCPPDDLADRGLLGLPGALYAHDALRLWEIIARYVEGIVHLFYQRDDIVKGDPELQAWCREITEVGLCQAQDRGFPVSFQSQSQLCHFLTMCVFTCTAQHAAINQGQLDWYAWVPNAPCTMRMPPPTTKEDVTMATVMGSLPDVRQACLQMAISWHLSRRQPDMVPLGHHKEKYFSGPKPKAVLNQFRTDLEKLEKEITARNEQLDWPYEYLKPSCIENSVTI"},
  "source": "PubChem BioAssay AID1671190",
  "about": "(National Center for Advancing Translational Sciences (NCATS), 2021)",
  "note": "Values joined by “and” are separate entries in the source; they are usually repeats but may differ in a detail not shown here. Equal values may be shown once. About 6,100 (1.1%) of roughly 580,000 compounds were called active. The shares of active, inactive and inconclusive entries below differ from those in the screen. The call rests on the fitted dose curve; in most records, active means well fitted inhibition curve with a large enough effect; inconclusive means small, poorly fitted or top-dose-only effect, or another doubt; inactive means no such curve, though single readings can be large or run the other way. Where the call is inconclusive, the potency comes from a doubtful curve fit. On the % scale 0 is the no-effect control and ±100 the full control effect; potency means the concentration at half of the fitted maximal effect.",
  "data": [
    {"molecular_target": "Polyunsaturated fatty acid lipoxygenase ALOX12 (Homo sapiens) (UniProt P18054)", "assay": "Primary qHTS assay for inhibitors of human arachidonate 12S-lipoxygenase (ALOX12): Round 2", "details": "purified 12hLO, xylenol orange hydroperoxide absorbance; activity change, negative = inhibition: at 108 µM (top of the series) unless noted", "outline": "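Purified human 12hLO (150 nM final) in 25 mM Hepes, 0.01% Triton X-100, pH 7.0 was preincubated 15 min at room temperature with compound. Then 40 uM arachidonic acid was added, 30 min. Hydroperoxide was read by Fe-XO absorbance ratio 573/405 nm.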", "values": [
      {"smiles": "COC[C@@H]1CN(S(=O)(=O)c2ccc(C)cc2C)C[C@H]1C(N)=O", "Potency": "inactive"},
      {"smiles": "CC(OC(=O)c1ccc2c(c1)OCCO2)C(=O)NC1CCCCC1C", "note": "(stereo not drawn)", "Potency": "inactive"},
      {"smiles": "COc1ccc(N2CCN(C(CNC(=O)CC(C)(C)C)c3ccc4c(c3)OCO4)CC2)cc1", "note": "(stereo not drawn)", "Potency": "inconclusive: 50.1 µM [inhibitor, partial curve, poor fit]"},
      {"smiles": "Cc1ccc(SCC(=O)Nc2ccc(N3CCN(C)CC3)c(F)c2)cc1", "Potency": "inactive"},
      {"smiles": "NC(=S)NN=C1CCCC(C(F)(F)F)C1", "note": "(stereo not drawn)", "Potency": "inconclusive: 0.282 µM [inhibitor, full curve, poor fit]"},
      {"smiles": "COc1ccc(C(C(=O)Nc2ccc(C(C)C)cc2)N(C)C(=O)c2ccc(=O)[nH]c2)cc1", "note": "(stereo not drawn)", "Potency": "inconclusive: 100 µM [inhibitor, partial curve, poor fit]"},
      {"smiles": "C/C=C/c1c(F)c(F)c(Oc2ccc(C(=O)O)cc2)c(F)c1F", "Potency": "inactive"},
      {"smiles": "CC1=CC(C)(C)Nc2cc(C)c(C)cc21", "Potency": "inconclusive: 50.1 µM [inhibitor, partial curve]"},
      {"smiles": "OC1(c2cccnc2)CCN(Cc2ccc3c(c2)CN(Cc2cccc(C(F)(F)F)c2)CCO3)CC1", "Potency": "inconclusive: 112 µM [inhibitor, single point]"},
      {"smiles": "O=C(CN1C(=O)NC2(CCSC2)C1=O)N1CCN(c2ccc(F)cc2)CC1", "note": "(stereo not drawn)", "Potency": "inconclusive: 35.5 µM [inhibitor, partial curve, poor fit]"},
      {"smiles": "Cc1ccc2c(CC(=O)NNC(=O)c3ccccc3O)coc2c1", "Potency": "inconclusive: 56.2 µM [inhibitor, partial curve, poor fit]"},
      {"smiles": "O=C(NC1CCCCC1)[C@@H]1C[C@@H](O)CN1C1CCN(C(=O)c2ccc3ncccc3c2)CC1", "Potency": "inactive"},
      {"smiles": "CC1(C)C(=O)Nc2ccccc2N1C(=O)COC(=O)c1cccnc1Cl", "Potency": "inconclusive: 112 µM [inhibitor, single point]"},
      {"smiles": "OC[C@@H]1CN(Cc2cccnc2)C[C@H](n2cnc3c(N4CCCC4)ncnc32)O1", "Potency": "inactive"},
      {"smiles": "Cc1cc2ccccc2n1CCNC(=O)COc1ccc2ccccc2c1", "Potency": "inconclusive: 35.5 µM [inhibitor, partial curve, poor fit]"},
      {"smiles": "O=C(OCC1OC(n2cc(Br)c(=O)[nH]c2=O)C(Br)C1O)c1ccccc1", "note": "(stereo not drawn)", "Potency": "inconclusive: 31.6 µM [inhibitor, single point]"},
      {"smiles": "Cc1ccccc1N1CCN(C2CCCN(C(=O)c3snnc3C)C2)CC1", "note": "(stereo not drawn)", "activity change, negative = inhibition": "inconclusive: -33.2% [inhibitor]"},
      {"smiles": "S=c1[nH]nc(CCSCc2ccccc2)n1-c1ccccc1", "Potency": "inconclusive: 56.2 µM [inhibitor, partial curve, poor fit]"},
      {"smiles": "COc1ccccc1NC(=S)N/N=C1\\CC(C)(C)Oc2ccc(O)cc21", "Potency": "inconclusive: 25.1 µM [inhibitor, partial curve, poor fit]"},
      {"smiles": "Nc1nc(COC(=O)c2ccc(O)cc2)nc2ccccc12", "Potency": "inactive"},
      {"smiles": "O=C(NC1CCCCCC1)C1CC(c2cccc(F)c2)=NO1", "note": "(stereo not drawn)", "Potency": "inconclusive: 141 µM [inhibitor, single point]"},
      {"smiles": "O=C(OCc1ccccc1)C1=NNC2C(=O)N(c3ccc(Br)cc3)C(=O)C12", "note": "(stereo not drawn)", "Potency": "inactive"},
      {"smiles": "N#CC1=C(N)Oc2n[nH]c(-c3cccs3)c2C1C1C=CCCC1", "note": "(stereo not drawn)", "Potency": "inconclusive: 50.1 µM [inhibitor, partial curve, poor fit]"},
      {"smiles": "C[C@H](C(=O)N1Cc2ccccc2CC2(CCN(Cc3ccncc3)C2)C1)c1ccccc1", "note": "(stereo partly drawn)", "Potency": "inconclusive: 56.2 µM [inhibitor, partial curve, poor fit]"},
      {"smiles": "CCN(Cc1ccc(Cl)s1)C(=O)Cn1nnc(-c2cccc(C(F)(F)F)c2)n1", "Potency": "inactive"},
      {"smiles": "O=C(CN1CCN(Cc2cccc(Cl)c2)C1=O)NCc1ccccn1", "Potency": "inactive"},
      {"smiles": "O=C(CSc1ncn(-c2ccccc2)n1)Nc1ccc2c(c1)OCO2", "Potency": "inconclusive: 0.631 µM [inhibitor, full curve, poor fit]"},
      {"smiles": "Cc1cc(N(CCO)CCO)ccc1C(c1ccc(N(CCO)CCO)cc1C)c1ccccc1Cl", "Potency": "inconclusive: 89.1 µM [inhibitor, partial curve, poor fit]"},
      {"smiles": "Cc1ccc(-c2noc([C@@H]3CCCN3C(=O)CCCc3ccccc3)n2)cc1", "Potency": "inconclusive: 63.1 µM [inhibitor, single point]"},
      {"smiles": "O=C(O)C1(c2ccccc2)CCN(S(=O)(=O)c2ccccc2)CC1", "Potency": "inactive"},
      {"smiles": "C[N+]1(CC(=O)OCCCC2CCCCC2)CCCC1", "Potency": "inactive"},
      {"smiles": "Cc1cc(C)nc(N2N=C(C(C)(C)C)CC2=O)n1", "Potency": "inactive"},
      {"smiles": "COc1ccc([C@H]2C[C@@H](O)[C@@H](O)[C@@H]2NCc2cnn(C)c2)cc1", "Potency": "inconclusive: 31.6 µM [inhibitor, single point]"},
      {"smiles": "C=C1c2cccc(O)c2C(O)=C2C(=O)[C@]3(O)C(O)=C(C(N)=O)C(=O)[C@@H](N(C)C)[C@@H]3[C@@H](O)[C@H]12", "Potency": "inactive"},
      {"smiles": "O=C(Nc1ccsc1C(=O)O)c1cccc(Oc2ccccc2)c1", "Potency": "inactive"},
      {"smiles": "COc1ccc(-c2nc(CNC(=O)Nc3ccccc3OC)c(C)o2)cc1", "Potency": "inactive"},
      {"smiles": "O=C(Nc1ccc(Oc2ccccc2)cc1)O[C@@H]1CO[C@H]2[C@@H]1OC[C@@H]2NS(=O)(=O)c1cccs1", "Potency": "inconclusive: 31.6 µM [inhibitor, partial curve, poor fit]"},
      {"smiles": "CCOC(=O)N1CCN(CCC(=O)Nc2ccc(Br)c(C)c2)CC1", "Potency": "inactive"},
      {"smiles": "O=C(CN1CCN(c2ccccc2)CC1)Nc1nc(-c2ccc(Cl)cc2)cs1", "Potency": "inactive"},
      {"smiles": "Cc1cc(NC(=O)COC(=O)c2cc3c(F)cccc3s2)no1", "Potency": "inactive"},
      {"smiles": "COc1ccccc1NC(=O)c1cc(=O)c2cc(C)c(C)cc2o1", "Potency": "inconclusive: 31.6 µM [inhibitor, partial curve, poor fit]"},
      {"smiles": "O=C(N/N=C/C(Br)=C\\c1ccccc1)c1ccc2nc[nH]c2c1", "Potency": "inactive"},
      {"smiles": "S=c1[nH]c(-c2ccc(Cl)cc2)cs1", "Potency": "inconclusive: 44.7 µM [inhibitor, partial curve] and inconclusive: 2.82 µM [inhibitor, full curve, poor fit]"},
      {"smiles": "Cc1c(Cl)cccc1NC(=S)NC1CCCC1", "Potency": "inconclusive: 50.1 µM [inhibitor, partial curve, poor fit]"},
      {"smiles": "C/C(N)=C(/C#N)C(=O)CSc1ccc2c(c1)OCCO2", "Potency": "inactive"},
      {"smiles": "O=c1nc2ccccc2c2n1CC(CN1CCN(c3ccc(F)cc3)CC1)N2", "note": "(stereo not drawn)", "Potency": "inconclusive: 0.891 µM [inhibitor, partial curve, poor fit]"},
      {"smiles": "Cc1cc(Nc2ccc(Br)cc2)nc(-c2ccccc2O)n1", "Potency": "inconclusive: 12.6 µM [inhibitor, partial curve, poor fit] and inconclusive: 50.1 µM [inhibitor, partial curve, poor fit]"},
      {"smiles": "COc1ccc(-c2nc(-c3ccc(S(=O)(=O)N4CCCC4)cc3)cs2)cc1OC", "Potency": "inconclusive: 39.8 µM [inhibitor, partial curve, poor fit]"},
      {"smiles": "O=C(COc1ccc2ccc(=O)oc2c1)NC1CCCCC1", "Potency": "inconclusive: 35.5 µM [inhibitor, partial curve, poor fit]"},
      {"smiles": "COc1ccc(CCNC(=O)C(=O)NCC2OCCN2S(=O)(=O)c2cc(F)ccc2F)cc1", "note": "(stereo not drawn)", "Potency": "inactive"},
      {"smiles": "COc1ccc2c(c1)CCN=C2C[C@H]1CN(C(=O)CC(C)(C)C)CC[C@H]1CC(=O)O", "Potency": "inconclusive: 35.5 µM [inhibitor, full curve, poor fit]"},
      {"smiles": "CN(C)c1ccc(NC(=O)c2cn(-c3ccccc3)nc2-c2cccs2)cc1", "Potency": "inconclusive: 100 µM [inhibitor, single point]"},
      {"smiles": "Cc1nc(-c2cccc(C(F)(F)F)c2)sc1C(=O)O", "Potency": "inactive"},
      {"smiles": "COc1ccc(S(=O)(=O)N2CCCCC2)cc1NC(=O)Cc1c[nH]c2ccccc12", "Potency": "inconclusive: 112 µM [inhibitor, partial curve, poor fit]"},
      {"smiles": "CCOC(=O)c1c(C)[nH]c(C(=O)OCC(=O)N2c3ccccc3CC2C)c1C", "note": "(stereo not drawn)", "Potency": "inconclusive: 89.1 µM [inhibitor, single point]"},
      {"smiles": "CCC(CC)C(C(=O)NCc1ccccc1)N(C)Cc1ccc(Cl)c(Cl)c1", "note": "(stereo not drawn)", "Potency": "inactive"},
      {"smiles": "CCOc1ccccc1C(=O)Nc1ccc(S(=O)(=O)Nc2nccc(C)n2)cc1", "Potency": "inactive"},
      {"smiles": "CC(C)c1ccc(CNC(=O)c2cc3n(n2)CC(c2ccc(Cl)cc2)OC3)cc1", "note": "(stereo not drawn)", "Potency": "inconclusive: 50.1 µM [inhibitor, partial curve]"},
      {"smiles": "Cc1cccc(Sc2nc(-c3ccccc3)ccc2C#N)c1", "Potency": "inactive"},
      {"smiles": "CCC(=O)c1ccc(Oc2ccc(C(=O)c3ccc(C)cc3)cc2[N+](=O)[O-])cc1", "Potency": "inconclusive: 7.08 µM [inhibitor, full curve, poor fit]"},
      {"smiles": "CCOC(=O)c1cnc(SCc2nc(N)nc(Nc3ccc(C)cc3)n2)nc1N", "Potency": "inactive"},
      {"smiles": "O=C(c1ccc(-c2ccccc2)cc1)N(Cc1ccco1)C1CC1", "Potency": "inconclusive: 56.2 µM [inhibitor, single point]"},
      {"smiles": "O=C(Nc1cc(F)c(F)c(F)c1)N1CCC(n2cnnc2C2CC2)C1", "note": "(stereo not drawn)", "Potency": "inactive"},
      {"smiles": "CCN(CC)CCNC(=O)c1c(O)c2cc(OC)c(OC)cc2[nH]c1=O", "Potency": "inconclusive: 15.8 µM [inhibitor, partial curve, poor fit]"},
      {"smiles": "Cc1cc(C)cc(N(C(=O)c2ccc(Br)o2)C2C=CS(=O)(=O)C2)c1", "note": "(stereo not drawn)", "Potency": "inactive"},
      {"smiles": "C=CCn1c(SCC(=O)c2ccccc2)nc2c1c(=O)n(C)c(=O)n2C", "Potency": "inconclusive: 89.1 µM [inhibitor, partial curve, poor fit]"},
      {"smiles": "Cc1cccc(C(C(N)=O)c2ncc(C(F)(F)F)cc2Cl)c1", "note": "(stereo not drawn)", "Potency": "inconclusive: 112 µM [inhibitor, single point]"},
      {"smiles": "COCCOC(=O)c1c(N)n(CCCN2CCOCC2)c2nc3ccccc3nc12", "Potency": "inconclusive: 8.91 µM [inhibitor, full curve]"}
    ]}
  ]
}
